From ChEMBL document CHEMBL1157572 (J Med Chem, 2010) come the findings set out here.

Format in all cases: functional, cell-based
One test deals with KB. The experiment in a line: Antiproliferative activity against human KB cells after 72 hrs by methylene blue dye assay.
In another test the test system is MKN-45. The experiment in a line: Antiproliferative activity against human MKN45 cells after 72 hrs by methylene blue dye assay. The conditions noted are these: MKN-45, 72 h.
For a further test, the system named is HT-29. The experiment in a line: Antiproliferative activity against human HT-29 cells after 72 hrs by methylene blue dye assay. The note with it: HT-29, 72 h.

As a reminder, the IC50 is the midpoint of a concentration-inhibition curve. A higher IC50 goes with weaker potency. With `COc1cc2c(c(OC)c1OC)-c1ccc(OC)c(=O)cc1[C@@H](NC(C)=O)CC2` [COLCHICINE], the 50% inhibitory concentration (IC50) in the test on KB was determined as 12 nM; with MKN-45, 12.4 nM; with HT-29, 13.2 nM.
